From article PMC12467718

B1: leukosialin precursor [Homo sapiens] (protein, UniProt P16150 20-400)
chain: STTAVQTPTSGEPLVSTSEPLSSKMYTTSITSDPKADSTGDQTSALPPSTSINEGSPLWTSIGASTGSPLPEPTTYQEVSIKMSSVPQETPHATSHPAVPITANSLGSHTVTGGTITTNSPETSSRTSGAPVTTAASSLETSRGTSGPPLTMATVSLETSKGTSGPPVTMATDSLETSTGTTGPPVTMTTGSLEPSSGASGPQVSSVKLSTMMSPTTSTNASTVPFRNPDENSRGMLPVAVLVALLAVIVLVALLLLWRRRQKRRTGALVLSRGGKRNGVVDAWAGPAQVPEEGAVTVTVGGSGGDKGSGFPDGEGSSRRPTLTTFFGRRKSRQGSLAMEELKSGSGPSLKGEEEPLVASEDGAVDAPAPDEPEGGDGAAP
B2: multidrug resistance-associated protein 4 isoform 1 [Homo sapiens] (protein, UniProt O15439 1-1325)
chain: MLPVYQEVKPNPLQDANLCSRVFFWWLNPLFKIGHKRRLEEDDMYSVLPEDRSQHLGEELQGFWDKEVLRAENDAQKPSLTRAIIKCYWKSYLVLGIFTLIEESAKVIQPIFLGKIINYFENYDPMDSVALNTAYAYATVLTFCTLILAILHHLYFYHVQCAGMRLRVAMCHMIYRKALRLSNMAMGKTTTGQIVNLLSNDVNKFDQVTVFLHFLWAGPLQAIAVTALLWMEIGISCLAGMAVLIILLPLQSCFGKLFSSLRSKTATFTDARIRTMNEVITGIRIIKMYAWEKSFSNLITNLRKKEISKILRSSCLRGMNLASFFSASKIIVFVTFTTYVLLGSVITASRVFVAVTLYGAVRLTVTLFFPSAIERVSEAIVSIRRIQTFLLLDEISQRNRQLPSDGKKMVHVQDFTAFWDKASETPTLQGLSFTVRPGELLAVVGPVGAGKSSLLSAVLGELAPSHGLVSVHGRIAYVSQQPWVFSGTLRSNILFGKKYEKERYEKVIKACALKKDLQLLEDGDLTVIGDRGTTLSGGQKARVNLARAVYQDADIYLLDDPLSAVDAEVSRHLFELCICQILHEKITILVTHQLQYLKAASQILILKDGKMVQKGTYTEFLKSGIDFGSLLKKDNEESEQPPVPGTPTLRNRTFSESSVWSQQSSRPSLKDGALESQDTENVPVTLSEENRSEGKVGFQAYKNYFRAGAHWIVFIFLILLNTAAQVAYVLQDWWLSYWANKQSMLNVTVNGGGNVTEKLDLNWYLGIYSGLTVATVLFGIARSLLVFYVLVNSSQTLHNKMFESILKAPVLFFDRNPIGRILNRFSKDIGHLDDLLPLTFLDFIQTLLQVVGVVSVAVAVIPWIAIPLVPLGIIFIFLRRYFLETSRDVKRLESTTRSPVFSHLSSSLQGLWTIRAYKAEERCQELFDAHQDLHSEAWFLFLTTSRWFAVRLDAICAMFVIIVAFGSLILAKTLDAGQVGLALSYALTLMGMFQWCVRQSAEVENMMISVERVIEYTDLEKEAPWEYQKRPPPAWPHEGVIIFDNVNFMYSPGGPLVLKHLTALIKSQEKVGIVGRTGAGKSSLISALFRLSEPEGKIWIDKILTTEIGLHDLRKKMSIIPQEPVLFTGTMRKNLDPFNEHTDEELWNALQEVQLKETIEDLPGKMDTELAESGSNFSVGQRQLVCLARAILRKNQILIIDEATANVDPRTDELIQKKIREKFAHCTVLTIAHRLNTIIDSDKIMVLDSGRLKEYDEPYVLLQNKESLFYKMVQQLGKAEAAALTETAKQVYFKRNYPHIGHTDHMVTNTSNGQPSTLTIFETAL
B3: carboxypeptidase D isoform 1 precursor [Homo sapiens] (enzyme, UniProt O75976 32-1380)
chain: AHIKKAEATTTTTSAGAEAAEGQFDRYYHEEELESALREAAAAGLPGLARLFSIGRSVEGRPLWVLRLTAGLGSLIPEGDAGPDAAGPDAAGPLLPGRPQVKLVGNMHGDETVSRQVLIYLARELAAGYRRGDPRLVRLLNTTDVYLLPSLNPDGFERAREGDCGFGDGGPSGASGRDNSRGRDLNRSFPDQFSTGEPPALDEVPEVRALIEWIRRNKFVLSGNLHGGSVVASYPFDDSPEHKATGIYSKTSDDEVFKYLAKAYASNHPIMKTGEPHCPGDEDETFKDGITNGAHWYDVEGGMQDYNYVWANCFEITLELSCCKYPPASQLRQEWENNRESLITLIEKVHIGVKGFVKDSITGSGLENATISVAGINHNITTGRFGDFYRLLVPGTYNLTVVLTGYMPLTVTNVVVKEGPATEVDFSLRPTVTSVIPDTTEAVSTASTVAIPNILSGTSSSYQPIQPKDFHHHHFPDMEIFLRRFANEYPNITRLYSLGKSVESRELYVMEISDNPGVHEPGEPEFKYIGNMHGNEVVGRELLLNLIEYLCKNFGTDPEVTDLVHNTRIHLMPSMNPDGYEKSQEGDSISVIGRNNSNNFDLNRNFPDQFVQITDPTQPETIAVMSWMKSYPFVLSANLHGGSLVVNYPFDDDEQGLATYSKSPDDAVFQQIALSYSKENSQMFQGRPCKNMYPNEYFPHGITNGASWYNVPGGMQDWNYLQTNCFEVTIELGCVKYPLEKELPNFWEQNRRSLIQFMKQVHQGVRGFVLDATDGRGILNATISVAEINHPVTTYKTGDYWRLLVPGTYKITASARGYNPVTKNVTVKSEGAIQVNFTLVRSSTDSNNESKKGKGASSSTNDASDPTTKEFETLIKDLSAENGLESLMLRSSSNLALALYRYHSYKDLSEFLRGLVMNYPHITNLTNLGQSTEYRHIWSLEISNKPNVSEPEEPKIRFVAGIHGNAPVGTELLLALAEFLCLNYKKNPAVTQLVDRTRIVIVPSLNPDGRERAQEKDCTSKIGQTNARGKDLDTDFTNNASQPETKAIIENLIQKQDFSLSVALDGGSMLVTYPYDKPVQTVENKETLKHLASLYANNHPSMHMGQPSCPNKSDENIPGGVMRGAEWHSHLGSMKDYSVTYGHCPEITVYTSCCYFPSAARLPSLWADNKRSLLSMLVEVHKGVHGFVKDKTGKPISKAVIVLNEGIKVQTKEGGYFHVLLAPGVHNIIAIADGYQQQHSQVFVHHDAASSVVIVFDTDNRIFGLPRELVVTVSGATMSALILTACIIWCICSIKSNRHKDGFHRLRQHHDEYEDEIRMMSTGSKKSLLSHEFQDETDTEEETLYSSKH
B4: cytochrome b-245 heavy chain [Homo sapiens] (protein, UniProt P04839 1-570)
chain: MGNWAVNEGLSIFVILVWLGLNVFLFVWYYRVYDIPPKFFYTRKLLGSALALARAPAACLNFNCMLILLPVCRNLLSFLRGSSACCSTRVRRQLDRNLTFHKMVAWMIALHSAIHTIAHLFNVEWCVNARVNNSDPYSVALSELGDRQNESYLNFARKRIKNPEGGLYLAVTLLAGITGVVITLCLILIITSSTKTIRRSYFEVFWYTHHLFVIFFIGLAIHGAERIVRGQTAESLAVHNITVCEQKISEWGKIKECPIPQFAGNPPMTWKWIVGPMFLYLCERLVRFWRSQQKVVITKVVTHPFKTIELQMKKKGFKMEVGQYIFVKCPKVSKLEWHPFTLTSAPEEDFFSIHIRIVGDWTEGLFNACGCDKQEFQDAWKLPKIAVDGPFGTASEDVFSYEVVMLVGAGIGVTPFASILKSVWYKYCNNATNLKLKKIYFYWLCRDTHAFEWFADLLQLLESQMQERNNAGFLSYNIYLTGWDESQANHFAVHHDEEKDVITGLKQKTLYGRPNWDNEFKTIASQHPNTRIGVFLCGPEALAETLSKQSISNSESGPRGVHFIFNKENF
B5: neutral amino acid transporter B(0) isoform 1 [Homo sapiens] (protein, UniProt Q15758 1-541)
chain: MVADPPRDSKGLAAAEPTANGGLALASIEDQGAAAGGYCGSRDQVRRCLRANLLVLLTVVAVVAGVALGLGVSGAGGALALGPERLSAFVFPGELLLRLLRMIILPLVVCSLIGGAASLDPGALGRLGAWALLFFLVTTLLASALGVGLALALQPGAASAAINASVGAAGSAENAPSKEVLDSFLDLARNIFPSNLVSAAFRSYSTTYEERNITGTRVKVPVGQEVEGMNILGLVVFAIVFGVALRKLGPEGELLIRFFNSFNEATMVLVSWIMWYAPVGIMFLVAGKIVEMEDVGLLFARLGKYILCCLLGHAIHGLLVLPLIYFLFTRKNPYRFLWGIVTPLATAFGTSSSSATLPLMMKCVEENNGVAKHISRFILPIGATVNMDGAALFQCVAAVFIAQLSQQSLDFVKIITILVTATASSVGAAGIPAGGVLTLAIILEAVNLPVDHISLILAVDWLVDRSCTVLNVEGDALGAGLLQNYVDRTESRSTEPELIQVKSELPLDPLPVPTEEGNPLLKHYRGPAGDATVASEKESVM

The binders below were run against C-terminal domain of Gal-8, immobilized on Affi-Gel-10 beads (human) (assay: affinity purification with mass spectrometry; 8 mL HL-60 membrane preparation with 3 mL Gal-8-beads or Gal-8C-beads (10 mg/mL, Affi-Gel-10), 1 h at 4 °C, PBS-1.5% Triton X-100; sucrose wash, 100 mM lactose elution; 75-250 kDa Coomassie bands, LC-MS/MS; only the target purified).

binding	Binder
no binding	B1
no binding	B2
binds	B3
binds	B4
binds	B5

No constants are given. Whether binding was seen depends on the method and setting. Binding seen in cells or lysates may run through a third protein. Here binding means that the protein was enriched with, or labelled near, the bait; the list need not be complete. A no says only that the protein was not detected with the bait.
